Experimental data: PubChem BioAssay AID504764 (Drosophila RNAi Screening Center, 2011)
The screen tested about 22,000 reagents; below is a random part of those that have a named target and a result. Over the whole deposit, 403 (1.9%) are marked active. 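Unnormalised raw counts per well; ratio z-scores behind the hit calls and whether each hit raises or lowers signal are not deposited.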 Names joined by + are all predicted targets of the reagent. Not given: the amount of reagent.

- Aim: 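Genes whose knock-down alters Notch-dependent transcription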 (primary screen)
- Cells: Drosophila Kc167 cells
- Reagents: long dsRNA against Drosophila genes
- Timing: about 5 days (4 days dsRNA, then 24 h after transfection)
- Conditions: transfection of constitutively active membrane-tethered Notch lacking the extracellular domain, read 24 h later
- Detection: 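Firefly luciferase from an E(spl)m3 reporter with active Notch, plus control-promoter and uninduced reporter wells for normalisation; unnormalised counts, duplicate wells a and b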
- Reading the numbers: induced reporter light, run 1, well a and induced reporter light, run 1, well b: higher = more light from the Notch target reporter with active Notch; control promoter light, run 1, well a and control promoter light, run 1, well b: higher = more light from the viral control promoter (cell number, transfection, viability); uninduced reporter light, run 1, well a: higher = more light from the Notch target reporter without active Notch
- Hit rule: 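Wells with low control signal or poorly matching duplicates excluded; duplicates averaged; per source plate, z beyond ±2 for induced/control log2 ratio or beyond ±1.8 for induced/uninduced marks a hit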
- Meaning of the calls: active = modifier hit (raised or lowered Notch signal); inactive = not a hit

| gene knocked down | PubChem SID | induced reporter light, run 1, well a | induced reporter light, run 1, well b | control promoter light, run 1, well a | control promoter light, run 1, well b | uninduced reporter light, run 1, well a | call |
| --- | --- | --- | --- | --- | --- | --- | --- |
| Nlg1 (Neuroligin 1) | SID104192277 | 1.15e5 | 1.39e5 | 1.41e5 | 96150 | 12400 | inactive |
| Nlg1 (Neuroligin 1) | SID104192324 | 84330 | 75565 | 99850 | 71890 | 5825 | inactive |
| Nlg1 (Neuroligin 1) | SID104192325 | 61205 | 75705 | 69810 | 44780 | 6965 | inactive |
| Nlg1 (Neuroligin 1) | SID104192331 | 73770 | 77545 | 75190 | 61115 | 5645 | inactive |
| Npc2e (Niemann-Pick type C-2e) | SID104195314 | 86690 | 84935 | 1.01e5 | 70825 | 7080 | inactive |
| CG10793 | SID104197552 | 1.22e5 | 1.16e5 | 1.94e5 | 1.84e5 | 10225 | inactive |
| CG42735 (retired record) | SID104180713 | 1.26e5 | 1.01e5 | 1.53e5 | 1.68e5 | 8395 | inactive |
| dib (disembodied) | SID104188503 | 1.04e5 | 1.14e5 | 80245 | 29690 | 11410 | inactive |
| gskt (gasket) | SID104193848 | 92955 | 90085 | 95895 | 97025 | 7582 | inactive |
| Scsalpha1 (Succinyl-coenzyme A synthetase alpha subunit 1) | SID104188490 | 1.58e5 | 1.59e5 | 1.77e5 | 1.02e5 | 18325 | active |
| Twdlbeta (Tweedlebeta) | SID104187102 | 97820 | 1.04e5 | 1.21e5 | 1.24e5 | 8625 | inactive |
| Pcyt2 (Phosphocholine cytidylyltransferase 2) | SID104188323 | 1.01e5 | 91305 | 1.72e5 | 1.65e5 | 7338 | inactive |
| Xpd (Xeroderma pigmentosum D) | SID104184458 | 2.09e5 | 1.84e5 | 1.86e5 | 2.18e5 | 17920 | inactive |
| vari (varicose) | SID104182994 | 45590 | 36150 | 33075 | 30165 | 1380 | inactive |
| CG16721 | SID104197905 | 1.91e5 | 1.59e5 | 2.42e5 | 2.08e5 | 14978 | inactive |
| Liprin-alpha | SID104181924 | 1.72e5 | 1.43e5 | 1.79e5 | 1.78e5 | 16050 | inactive |
| ix (intersex) | SID104186117 | 61810 | 49500 | 53705 | 33925 | 7770 | inactive |
| CG14135 | SID104189932 | 2.66e5 | 1.99e5 | 3.04e5 | 3.03e5 | 14815 | inactive |
| CG16854 | SID104182328 | 93160 | 1.55e5 | 72080 | 84795 | 14305 | inactive |
| Start1 | SID104184176 | 78245 | 92015 | 57635 | 74935 | 5225 | inactive |
| CG13810 | SID104188136 | 1.38e5 | 1.33e5 | 2.45e5 | 2.13e5 | 5728 | inactive |
| CG13810 | SID104202197 | – | – | – | – | – | active |
| CG14891 | SID104194805 | 1.40e5 | 1.62e5 | 2.00e5 | 2.21e5 | 11080 | inactive |
| CG4849 | SID104195454 | 17415 | 17750 | 13385 | 19895 | 840 | inactive |
| l(2)k14505 (lethal (2) k14505) | SID104182898 | 1.75e5 | 1.95e5 | 1.80e5 | 2.01e5 | 15492 | inactive |
| CG13299 | SID104189765 | 2.12e5 | 1.51e5 | 1.81e5 | 2.00e5 | 6670 | inactive |
| CG6891 | SID104199808 | 1.66e5 | 1.44e5 | 1.46e5 | 1.28e5 | 11170 | inactive |
| MME1 (Mitochondrial Magnesium Exporter 1) | SID104182506 | 1.86e5 | 1.81e5 | 2.31e5 | 2.03e5 | 16320 | inactive |
| CG13700 | SID104189841 | 1.93e5 | 1.75e5 | 2.45e5 | 2.45e5 | 8300 | inactive |
| Lcp3 (Larval cuticle protein 3) | SID104187249 | 1.52e5 | 1.24e5 | 1.56e5 | 1.99e5 | 13582 | inactive |
| Mhcl (Myosin heavy chain-like) | SID104192922 | 1.39e5 | 1.39e5 | 2.22e5 | 2.24e5 | 10792 | inactive |
| Mhcl (Myosin heavy chain-like) | SID104194008 | 2.23e5 | 2.35e5 | 2.35e5 | 2.62e5 | 17938 | inactive |
| Mhcl (Myosin heavy chain-like) | SID104196545 | 1.92e5 | 1.81e5 | 2.29e5 | 2.03e5 | 15380 | inactive |
| Lcp1Psi (Larval cuticle protein 1 pseudogene) | SID104184897 | 98905 | 1.26e5 | 1.58e5 | 1.56e5 | 5590 | inactive |
| Ac78C (Adenylyl cyclase 78C) | SID104191259 | 2.15e5 | 2.39e5 | 2.68e5 | 2.78e5 | 19565 | inactive |
| Ac78C (Adenylyl cyclase 78C) | SID104191394 | 1.54e5 | 1.24e5 | 1.14e5 | 97315 | 13640 | inactive |
| Ac78C (Adenylyl cyclase 78C) | SID104191411 | 5270 | 5515 | 6240 | 4405 | 460 | inactive |
| Cda4 (Chitin deacetylase-like 4) | SID104200415 | 78085 | 62170 | 90170 | 1.34e5 | 9605 | inactive |
| Cda4 (Chitin deacetylase-like 4) | SID104200433 | 79715 | 98220 | 82965 | 1.04e5 | 10130 | inactive |
| Cda4 (Chitin deacetylase-like 4) | SID104200434 | 83845 | 1.02e5 | 1.13e5 | 1.28e5 | 10305 | inactive |
| Ucp4A (Uncoupling protein 4A) | SID104199788 | 61885 | 54505 | 57470 | 51040 | 7100 | inactive |
| CG17032 | SID104190033 | 1.41e5 | 1.49e5 | 2.01e5 | 1.70e5 | 9100 | inactive |
| pHCl-2 (pH-sensitive chloride channel 2) | SID104194098 | 1.27e5 | 1.31e5 | 2.00e5 | 2.02e5 | 10165 | inactive |
| CG34409 | SID104194369 | 1.30e5 | 1.16e5 | 96825 | 57440 | 5785 | inactive |
| udt (undicht) | SID104194006 | 1.48e5 | 1.53e5 | 2.07e5 | 2.12e5 | 14355 | inactive |
| IP3K1 (Inositol 1,4,5-triphosphate kinase 1) | SID104182526 | 2.29e5 | 2.56e5 | 2.07e5 | 2.05e5 | 19220 | inactive |
| CG43861 + CG12508 (retired record) | SID104181962 | 33505 | 37395 | 43850 | 31760 | 2188 | inactive |
| l(2)37Bb (lethal (2) 37Bb) | SID104181880 | 38920 | 28840 | 39180 | 31630 | 1810 | inactive |
| Cog3 (Component of oligomeric golgi complex 3) | SID104180377 | 1.53e5 | 1.66e5 | 1.48e5 | 1.58e5 | 13190 | inactive |
| Cyp6w1 (Cytochrome P450 6w1) | SID104184701 | 1.75e5 | 2.18e5 | 1.72e5 | 1.41e5 | 13880 | inactive |

No new results follow: an excerpt of the list.
| gene knocked down | PubChem SID | induced reporter light, run 1, well a | induced reporter light, run 1, well b | control promoter light, run 1, well a | control promoter light, run 1, well b | uninduced reporter light, run 1, well a | call |
| --- | --- | --- | --- | --- | --- | --- | --- |
| Mhcl (Myosin heavy chain-like) | SID104196545 | 1.92e5 | 1.81e5 | 2.29e5 | 2.03e5 | 15380 | inactive |
| Lcp1Psi (Larval cuticle protein 1 pseudogene) | SID104184897 | 98905 | 1.26e5 | 1.58e5 | 1.56e5 | 5590 | inactive |
| Ac78C (Adenylyl cyclase 78C) | SID104191259 | 2.15e5 | 2.39e5 | 2.68e5 | 2.78e5 | 19565 | inactive |
